Experimental data as given in PubChem BioAssay AID651640 (Broad Institute, 2012).
The campaign covered roughly 350,000 compounds. About 6,000 (1.7%) were called active. The shares of active, inactive and inconclusive entries below differ from those in the screen. No stated cut-off is given here; in the data, active means CPE inhibition above about 20% (passing the limit was not always enough); inconclusive means no clear call, values can overlap the other calls; tested in BHK-21 cells. Some compounds were tested as several samples or in several runs, with calls that do not always agree.

Assay: protection of cells from dengue 2 killing – plate reader, single concentration, primary screen (AID 651640);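 further: 0% = median of neutral control wells and 100% = median of positive control wells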
Details: DENV2-infected cells, cytopathic effect rescue, at 9.99 µM, hits give high values
In the case of `O=C(/C=C/C(Cl)(Cl)Cl)Nc1ccc(Cl)cc1`, the CPE inhibition is reported as inactive: -8.39%.
With `C[C@@H]1CN([C@@H](C)CO)C(=O)c2cccc(NC(=O)NC3CCCCC3)c2O[C@@H]1CN(C)C(=O)Nc1ccc(F)cc1` the CPE inhibition was inconclusive: 22.5%.
For `COc1ccc2c3c([nH]c2c1)[C@H](CO)N(C(=O)C1CCC1)CC31CCN(Cc2nccs2)CC1`, the CPE inhibition was active: 40.6%.
With `COCCOC(=O)c1[nH]c2c(c1C)C(=O)CC(c1cc(OC)ccc1OC)C2` (configuration not stated) the CPE inhibition was inactive: -1.32%.
In the case of `CC(=O)NCCNc1nc2cc(-c3cc(F)ccc3C)sc2c(=O)n1C`, the CPE inhibition is reported as inconclusive: 43.6%.
With `CCc1ccc2[nH]c(C(=O)Nc3ccc4c(c3)OCO4)cc2c1` the CPE inhibition was inactive: 6.85%.
With `COc1ccc(CNC(=O)c2sc(=O)n(Cc3ccccc3C)c2C)cc1` the CPE inhibition was inconclusive: 20.8%.
With `Cc1[nH]c(N)nc(=S)c1CCCNc1ccccc1` the CPE inhibition was inconclusive: 20.2%.
In the case of `C[C@@H]1NC(=O)[C@@]2(C)[C@@H](c3ccccc3)[C@H]3COc4ccc(Cl)cc4[C@@H]3N2C1=O`, the CPE inhibition is reported as inconclusive: 71.4%.
With `COc1ccc(CCN=C(NS(=O)(=O)c2ccc(Cl)cc2)c2ccccc2)cc1` the CPE inhibition was inactive: -2.69%.
In the case of `O=C(COC(=O)/C=C/c1cccc(C(F)(F)F)c1)NC(=O)NCc1ccco1`, the CPE inhibition is reported as inconclusive: 20.2%.
With `COCC#Cc1ccc2c(c1)O[C@H](CN(C)C(C)=O)[C@@H](C)CN([C@H](C)CO)S2(=O)=O` the CPE inhibition was inconclusive: 1.16%.
In the case of `COc1cccc(CNc2ccc3c(c2)ncn3C(C)C)c1OC`, the CPE inhibition is reported as inactive: 2.64%.
In the case of `O=C1C=C(/C=C/C2C=CC=CC2)C[C@@H](c2ccc(Cl)cc2)C1` (some centres not stated), the CPE inhibition is reported as inconclusive: 21.5%.
In the case of `O=C(Nc1ccc(Cl)cc1)Nc1ccc(C(=O)N2CCOCC2)cc1`, the CPE inhibition is reported as inconclusive: 66.7%.
With `COc1ccc(CNC(=O)COc2cc(O)c3c(c2)OC(C)(C)CC3=O)cc1` the CPE inhibition was inconclusive: 74.4%.
With `NC(=O)c1c(N)[nH]c(C(=O)c2ccccc2)c1-c1ccc(Cl)cc1Cl` the CPE inhibition was inactive: -6.94%.
In the case of `CCOC(=O)N/N=C/c1cc(C)n(-c2cccc3ccccc23)c1C`, the CPE inhibition is reported as active: 37.2%.
For `CN(CC(=O)NCc1ccccc1F)S(=O)(=O)c1ccc(Cl)cc1`, the CPE inhibition was inconclusive: 43.3%.
In the case of `O=S(=O)(c1ccc(F)cc1)N1CCCCN2[C@@H](CO)[C@@H](c3ccc(C#CC4CC4)cc3)[C@@H]2C1`, the CPE inhibition is reported as inactive: -34.5%.
With `Cc1ccc(S(=O)(=O)Nc2ccc(NC(=O)c3cccs3)cc2)cc1` the CPE inhibition was inactive: -4.41%.
In the case of `COc1ccc(-c2cc3nc(-c4ccccc4)cc(N4CCN(C(=O)c5ccsc5)CC4)n3n2)cc1`, the CPE inhibition is reported as active: 62.8%.
In the case of `C[C@@H]1CN([C@H](C)CO)C(=O)Cc2cc(NC(=O)Nc3ccc(F)cc3)ccc2O[C@H]1CN(C)C(=O)Nc1ccc2c(c1)OCO2`, the CPE inhibition is reported as inactive: 1.99%.
In the case of `O=C(C[C@H]1C[C@H]2c3cc(NC(=O)CC4CC4)ccc3O[C@H]2[C@@H](CO)O1)NCCN1CCCCC1`, the CPE inhibition is reported as inconclusive: 20.5%.
With `Cc1cnc2ccc(F)cc2c1` the CPE inhibition was inconclusive: 25%.
For `O=C(CS(=O)(=O)c1ccccc1)N1CCN(c2ccccc2)CC1`, the CPE inhibition was active: 103%.
For `COc1ccc(S(=O)(=O)N(C)C[C@H]2Oc3ccc(NC(=O)Nc4ccccc4)cc3C(=O)N([C@@H](C)CO)C[C@H]2C)cc1`, the CPE inhibition was inactive: 6.59%.
With `C[C@@H]1CN([C@H](C)CO)C(=O)c2cc(NC(=O)Nc3ccc(F)cc3)ccc2O[C@@H](C)CCCCO[C@H]1CN(C)Cc1ccccc1` the CPE inhibition was inactive: 3.33%.
With `C=CCn1c(SCC(=O)N(C)C2CCS(=O)(=O)C2)nnc1-c1ccccc1` (configuration not stated) the CPE inhibition was inconclusive: 24.4%.
For `O=S(=O)(Nc1nc2ccccc2nc1NCC1CCCO1)c1cc(Cl)ccc1Cl` (configuration not stated), the CPE inhibition was inactive: 0.121%.
With `O=C(C(=O)N1CCC(CNC(=O)C2COc3ccccc3O2)CC1)c1cccs1` (configuration not stated) the CPE inhibition was inconclusive: 44%.
In the case of `C[C@@H]1CCCCO[C@H](CN(C)C(=O)CCC(F)(F)F)[C@@H](C)CN([C@H](C)CO)C(=O)c2cc(NS(=O)(=O)c3ccccc3)ccc2O1`, the CPE inhibition is reported as inconclusive: 36.8%.
With `CCN(C(=O)COC(=O)c1cc(=O)[nH]c2ccccc12)c1c(N)n(Cc2ccccc2)c(=O)[nH]c1=O` the CPE inhibition was active: 65.3%.
With `C[C@@H]1CCCCO[C@H](CN(C)Cc2ccccc2)[C@@H](C)CN([C@H](C)CO)C(=O)c2cc(NC(=O)c3ccncc3)ccc2O1` the CPE inhibition was inconclusive: 28.5%.
In the case of `CC1=C(C(=O)OC(C)C)C(c2cccc([N+](=O)[O-])c2)n2c(cc(=O)[nH]c2=S)N1` (configuration not stated), the CPE inhibition is reported as inconclusive: 64.1%.
For `CC(C)C[C@@H](CN)NC(=O)c1nc[nH]c1C(=O)N[C@@H](C)C(=O)CNC[C@H](C)NC(=O)c1nc[nH]c1C(=O)N[C@@H](C)C(=O)O`, the CPE inhibition was inactive: -6.94%.
With `O=C(COc1ccc(Br)cc1)NCC1COc2ccccc2O1` (configuration not stated) the CPE inhibition was inconclusive: 22.3%.
In the case of `O=C(NNC(=O)c1ccc(-n2cncn2)c([N+](=O)[O-])c1)c1ccccc1`, the CPE inhibition is reported as inconclusive: 42.4%.
For `Cc1ccc(S(=O)(=O)N(C)C[C@H]2OCCCC[C@H](C)Oc3ccc(NS(=O)(=O)c4ccccc4)cc3C(=O)N([C@@H](C)CO)C[C@H]2C)cc1`, the CPE inhibition was inactive: -0.447%.
With `C[C@@H]1CN([C@H](C)CO)C(=O)c2cccc(NC(=O)NC3CCCCC3)c2O[C@@H]1CN(C)Cc1ccc(Oc2ccccc2)cc1` the CPE inhibition was inactive: -1.7%.
In the case of `Cc1ccc(C(=O)c2ccccc2C(=O)Nc2ccccc2)cc1`, the CPE inhibition is reported as inconclusive: 75.4%.
In the case of `CO[C@@H]1CN(C)C(=O)c2cc(NC(=O)Nc3c(C)noc3C)ccc2OC[C@@H](C)N(CCC(F)(F)F)C[C@@H]1C`, the CPE inhibition is reported as inactive: 1.55%.
With `Cc1nnc(SC(C)C(=O)Nc2ccc(Cl)cn2)n1Cc1ccccc1` (configuration not stated) the CPE inhibition was inconclusive: 21.1%.
For `C[C@@H]1CN([C@@H](C)CO)C(=O)Cc2cc(NC(=O)Nc3cccc4ccccc34)ccc2O[C@@H]1CN(C)S(C)(=O)=O`, the CPE inhibition was active: 65.7%.
For `COc1ccc(S(=O)(=O)NC(C)C(=O)Nc2ccccc2)cc1Cl` (configuration not stated), the CPE inhibition was inconclusive: 39.2%.
For `CC(C)c1ccc(NC(=O)Nc2cc3sccc3n2C)cc1`, the CPE inhibition was inconclusive: 36.5%.
For `COc1ccc(S(=O)(=O)N(C)C[C@@H]2Oc3ccc(NC(=O)Nc4ccc5c(c4)OCO5)cc3C(=O)N([C@H](C)CO)C[C@H]2C)cc1`, the CPE inhibition was inconclusive: 20.5%.
